Results taken from paper PMC8274477.
Results are given in words; binding and its absence hold for the method and conditions named. Some entries that bind do so weakly or less than the wild type.

Amino acid sequences for entries named in this document (tags omitted). Residues count along the entry.
UniProt Q9NYB9: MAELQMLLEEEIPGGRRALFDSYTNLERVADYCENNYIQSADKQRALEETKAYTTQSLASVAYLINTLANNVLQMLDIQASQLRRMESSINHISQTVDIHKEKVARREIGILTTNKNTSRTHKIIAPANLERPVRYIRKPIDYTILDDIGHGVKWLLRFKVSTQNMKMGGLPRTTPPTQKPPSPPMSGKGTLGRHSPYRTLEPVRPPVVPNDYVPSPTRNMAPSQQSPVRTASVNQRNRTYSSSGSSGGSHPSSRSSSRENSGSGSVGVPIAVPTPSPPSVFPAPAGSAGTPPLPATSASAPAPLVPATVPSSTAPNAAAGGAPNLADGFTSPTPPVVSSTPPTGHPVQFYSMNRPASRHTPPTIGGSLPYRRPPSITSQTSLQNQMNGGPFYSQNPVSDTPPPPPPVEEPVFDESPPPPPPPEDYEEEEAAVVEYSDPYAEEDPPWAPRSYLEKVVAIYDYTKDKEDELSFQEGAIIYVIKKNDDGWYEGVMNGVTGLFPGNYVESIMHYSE
UniProt P25067, residues 29-703: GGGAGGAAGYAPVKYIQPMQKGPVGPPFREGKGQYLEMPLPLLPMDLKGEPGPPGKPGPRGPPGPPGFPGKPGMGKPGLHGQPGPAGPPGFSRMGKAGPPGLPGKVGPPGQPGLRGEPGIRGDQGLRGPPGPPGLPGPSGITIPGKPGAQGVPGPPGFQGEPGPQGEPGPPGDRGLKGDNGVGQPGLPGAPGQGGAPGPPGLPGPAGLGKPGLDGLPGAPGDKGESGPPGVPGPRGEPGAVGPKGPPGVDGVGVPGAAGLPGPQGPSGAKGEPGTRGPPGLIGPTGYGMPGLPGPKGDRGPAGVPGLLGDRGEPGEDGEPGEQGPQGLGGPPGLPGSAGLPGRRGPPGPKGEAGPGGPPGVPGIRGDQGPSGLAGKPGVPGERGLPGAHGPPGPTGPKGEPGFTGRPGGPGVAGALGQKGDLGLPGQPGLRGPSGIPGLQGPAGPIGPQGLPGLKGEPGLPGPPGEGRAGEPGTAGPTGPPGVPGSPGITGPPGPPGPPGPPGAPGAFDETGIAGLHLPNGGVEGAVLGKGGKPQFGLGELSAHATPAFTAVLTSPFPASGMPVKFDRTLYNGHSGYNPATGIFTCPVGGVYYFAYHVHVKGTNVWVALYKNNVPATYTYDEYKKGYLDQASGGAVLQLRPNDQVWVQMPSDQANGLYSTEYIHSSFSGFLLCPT
UniProt P50461: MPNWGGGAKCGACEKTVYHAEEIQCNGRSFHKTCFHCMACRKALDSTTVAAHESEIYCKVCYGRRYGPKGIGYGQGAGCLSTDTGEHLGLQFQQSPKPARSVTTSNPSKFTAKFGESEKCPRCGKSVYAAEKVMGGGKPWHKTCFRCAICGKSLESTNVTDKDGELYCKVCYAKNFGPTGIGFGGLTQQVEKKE
UniProt Q9NTK5: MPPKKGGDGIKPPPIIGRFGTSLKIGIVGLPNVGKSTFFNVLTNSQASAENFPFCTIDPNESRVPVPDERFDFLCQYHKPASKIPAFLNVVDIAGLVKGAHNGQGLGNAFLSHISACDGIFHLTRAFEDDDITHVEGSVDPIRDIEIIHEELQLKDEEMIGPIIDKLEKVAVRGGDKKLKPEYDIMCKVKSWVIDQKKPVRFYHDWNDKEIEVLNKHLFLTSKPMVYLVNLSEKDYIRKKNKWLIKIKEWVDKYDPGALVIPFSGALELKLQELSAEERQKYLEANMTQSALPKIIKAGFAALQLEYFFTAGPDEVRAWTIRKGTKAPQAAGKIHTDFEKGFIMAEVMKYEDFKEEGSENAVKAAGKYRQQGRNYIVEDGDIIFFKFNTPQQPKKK

Tests used:
Assay in all cases: peptide or protein array; HuProt human proteome microarray; 5 ug/5 ml biotin-labelled LUBAC or OTULIN in solution, 1 h at room temperature; Cy5-streptavidin, scanned at 635 nm; BSA as negative control; hits: Z-score >= 3 and I_(Mean_Ratio) >= 1.4; both purified
[1] = molecular target: ABI2 (spot on the microarray) (human) (UniProt Q9NYB9)
COL8A2 (human) = COL8A2 (human) (UniProt P25067)
CSRP3 (human) = CSRP3 (human) (UniProt P50461)
CYB5R1 (human) = molecular target: T1, CYB5R1 (human) (UniProt Q9UHQ9)
T1 sequence: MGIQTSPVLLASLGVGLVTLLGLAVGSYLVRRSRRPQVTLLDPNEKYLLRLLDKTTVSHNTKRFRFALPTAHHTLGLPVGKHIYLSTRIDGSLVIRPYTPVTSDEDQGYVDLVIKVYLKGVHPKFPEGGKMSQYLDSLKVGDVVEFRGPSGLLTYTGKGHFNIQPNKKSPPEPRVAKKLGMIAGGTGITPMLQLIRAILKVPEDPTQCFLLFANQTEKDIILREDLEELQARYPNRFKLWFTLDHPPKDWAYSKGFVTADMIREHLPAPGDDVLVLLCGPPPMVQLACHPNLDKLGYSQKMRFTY

GBGT1 (human) = molecular target: T2, GBGT1 (human) (UniProt Q8N5D6)
T2 sequence: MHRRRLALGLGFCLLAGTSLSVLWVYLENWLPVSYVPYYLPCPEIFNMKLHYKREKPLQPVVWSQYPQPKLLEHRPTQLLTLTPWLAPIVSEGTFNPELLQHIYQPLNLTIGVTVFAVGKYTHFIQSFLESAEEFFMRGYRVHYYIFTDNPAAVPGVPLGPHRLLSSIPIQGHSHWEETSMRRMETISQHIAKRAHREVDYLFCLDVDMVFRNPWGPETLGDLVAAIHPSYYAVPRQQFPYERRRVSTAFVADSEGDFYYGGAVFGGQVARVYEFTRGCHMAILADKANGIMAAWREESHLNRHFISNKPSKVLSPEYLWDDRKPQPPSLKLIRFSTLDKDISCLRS

OLA1 (human) = OLA1 (human) (UniProt Q9NTK5)
PFKP (human) = molecular target: T3, PFKP (human) (UniProt Q01813)
T3 sequence: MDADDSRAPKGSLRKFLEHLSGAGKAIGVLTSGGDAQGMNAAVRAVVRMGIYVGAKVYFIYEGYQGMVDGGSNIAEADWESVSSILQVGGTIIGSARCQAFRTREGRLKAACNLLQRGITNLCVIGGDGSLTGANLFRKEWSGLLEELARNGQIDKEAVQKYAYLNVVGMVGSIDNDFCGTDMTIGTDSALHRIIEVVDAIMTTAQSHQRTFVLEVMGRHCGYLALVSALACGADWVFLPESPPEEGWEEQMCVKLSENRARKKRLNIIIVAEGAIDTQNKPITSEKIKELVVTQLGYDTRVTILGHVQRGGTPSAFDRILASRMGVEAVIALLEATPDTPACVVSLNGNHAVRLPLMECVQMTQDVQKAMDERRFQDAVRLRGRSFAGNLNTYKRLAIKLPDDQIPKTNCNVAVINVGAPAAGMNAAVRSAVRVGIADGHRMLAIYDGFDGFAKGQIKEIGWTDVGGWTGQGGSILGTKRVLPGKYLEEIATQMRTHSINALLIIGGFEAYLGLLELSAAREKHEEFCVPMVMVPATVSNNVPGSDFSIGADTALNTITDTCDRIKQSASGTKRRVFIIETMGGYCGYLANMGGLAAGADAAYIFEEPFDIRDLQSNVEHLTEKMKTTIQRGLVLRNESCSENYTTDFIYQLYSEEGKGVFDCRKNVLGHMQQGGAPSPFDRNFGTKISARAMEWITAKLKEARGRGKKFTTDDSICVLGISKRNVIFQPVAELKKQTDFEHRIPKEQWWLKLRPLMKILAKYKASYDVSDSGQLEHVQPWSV

binding [1]: binds
binding (COL8A2 (human)): binds
binding (CSRP3 (human)): binds
binding (CYB5R1 (human)): binds
binding (GBGT1 (human)): binds
binding (OLA1 (human)): binds
binding (PFKP (human)): binds
Substance: linear ubiquitin chain assembly complex (LUBAC), purified as HIS-tagged HOIP with the subunit HOIL-1, biotin-labelled (from UniProt Q96EP0 1-1072; Q9BYM8 1-510)
